Laboratory results published in patent US20230081426A1, “COMPOUNDS AND METHODS FOR KRAS MODULATION AND INDICATIONS THEREFOR” (Plexxikon Inc., priority 2020, published 2023).
The structures given here were assigned with low confidence; some may be wrong.

Legend:
[1] = target: G12V-mutant human KRAS (amino acid residues 1-188) (Homo sapiens, UniProt P01116, G12V); assay: KRAS Binding Competition Assay (AlphaScreen; biotinylated KRpep-2d analogue), G12V; settings: read-out: KRAS GMean IC50 (uM) MUTATION: G12V, geometric mean
[2] = target: G12D-mutant human KRAS (amino acid residues 1-188) (Homo sapiens, UniProt P01116, G12D); assay: KRAS Binding Disruption Assay (AlphaScreen; biotinylated KRpep-2d analogue or RAF1-RBD), G12D; settings: read-out: KRAS GMean IC50 (uM) MUTATION: G12D, geometric mean
[3] = target: G12C-mutant human KRAS (amino acid residues 1-188) (Homo sapiens, UniProt P01116, G12C); assay: KRAS Binding Disruption Assay (AlphaScreen; biotinylated KRpep-2d analogue or RAF1-RBD), G12C; settings: read-out: KRAS GMean IC50 (uM) MUTATION: G12C, geometric mean

**Q.** With `CN1CCC[C@H]1COc1nc(N2CC3CCC(C2)N3)c2cc(C3CC3)c(-c3cc(O)cc4ccccc34)c(F)c2n1` as the molecule, how does the IC50 [1] read?
**A.** Its IC50 is 10 to 100 µM.

**Q.** What about the IC50 [2] of the same molecule?
**A.** The IC50 was 0.0001 to 10 µM.

**Q.** What about the IC50 [3] of the same molecule?
**A.** Its IC50 is 0.0001 to 10 µM.
